Measured values from article doi:10.1101/192781.

Chains of the proteins cited; added tags and fusions are not shown.
UniProt Q9Z2D8: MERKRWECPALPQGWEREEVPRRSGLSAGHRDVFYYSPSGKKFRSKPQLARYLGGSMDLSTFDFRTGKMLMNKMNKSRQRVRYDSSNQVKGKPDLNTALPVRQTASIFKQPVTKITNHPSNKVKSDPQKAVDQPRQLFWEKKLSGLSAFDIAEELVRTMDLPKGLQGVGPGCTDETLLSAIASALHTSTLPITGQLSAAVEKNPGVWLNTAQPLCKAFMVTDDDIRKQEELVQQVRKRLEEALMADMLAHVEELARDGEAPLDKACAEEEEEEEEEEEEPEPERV
UniProt Q8CHY6: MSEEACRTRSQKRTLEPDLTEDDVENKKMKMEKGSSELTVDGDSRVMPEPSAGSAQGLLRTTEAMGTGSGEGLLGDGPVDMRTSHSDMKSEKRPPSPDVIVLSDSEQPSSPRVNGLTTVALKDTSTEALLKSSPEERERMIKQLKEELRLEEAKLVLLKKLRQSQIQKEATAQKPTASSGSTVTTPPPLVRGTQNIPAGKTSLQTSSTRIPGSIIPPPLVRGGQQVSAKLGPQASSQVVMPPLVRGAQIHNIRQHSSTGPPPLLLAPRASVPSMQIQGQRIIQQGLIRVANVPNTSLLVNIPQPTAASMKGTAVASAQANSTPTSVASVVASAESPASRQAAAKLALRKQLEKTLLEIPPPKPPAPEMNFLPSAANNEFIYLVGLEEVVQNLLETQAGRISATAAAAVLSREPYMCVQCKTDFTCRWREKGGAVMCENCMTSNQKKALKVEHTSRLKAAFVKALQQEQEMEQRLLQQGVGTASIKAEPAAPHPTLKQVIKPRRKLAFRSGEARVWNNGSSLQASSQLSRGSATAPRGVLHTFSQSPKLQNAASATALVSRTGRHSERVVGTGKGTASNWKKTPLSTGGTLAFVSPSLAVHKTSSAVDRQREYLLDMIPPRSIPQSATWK

Molecular target: 2XFlag-Mbd3 (DOX inducible allele, Rosa26-M2RtTA+/- Col1a:TetO-2XFlag-Mbd3+/-) (UniProt Q9Z2D8)
Test: affinity purification with mass spectrometry

- binding: binds
Substance: Gatad2a (from UniProt Q8CHY6 1-629)

These are yes or no findings as the source states them, for the method shown. Binding seen in cells or lysates may run through a third protein. A yes stands for co-enrichment or nearness to the bait. Other partners may have been found.
